The target of experiment [1] is T1, PTGES3 (human (endogenous in LNCaP)) (UniProt Q15185).
T1 sequence: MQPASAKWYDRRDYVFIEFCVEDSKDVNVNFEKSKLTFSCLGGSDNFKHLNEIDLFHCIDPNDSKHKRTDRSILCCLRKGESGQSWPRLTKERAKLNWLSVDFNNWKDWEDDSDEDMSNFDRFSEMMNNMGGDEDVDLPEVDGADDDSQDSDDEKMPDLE
Description: proximity ligation; Duolink in situ kit mouse/rabbit; LNCaP cells fixed with 4% PFA and permeabilized with 0.2% Triton X-100.

The chains behind the UniProt entries cited, without tags or fusion partners.
UniProt P10275: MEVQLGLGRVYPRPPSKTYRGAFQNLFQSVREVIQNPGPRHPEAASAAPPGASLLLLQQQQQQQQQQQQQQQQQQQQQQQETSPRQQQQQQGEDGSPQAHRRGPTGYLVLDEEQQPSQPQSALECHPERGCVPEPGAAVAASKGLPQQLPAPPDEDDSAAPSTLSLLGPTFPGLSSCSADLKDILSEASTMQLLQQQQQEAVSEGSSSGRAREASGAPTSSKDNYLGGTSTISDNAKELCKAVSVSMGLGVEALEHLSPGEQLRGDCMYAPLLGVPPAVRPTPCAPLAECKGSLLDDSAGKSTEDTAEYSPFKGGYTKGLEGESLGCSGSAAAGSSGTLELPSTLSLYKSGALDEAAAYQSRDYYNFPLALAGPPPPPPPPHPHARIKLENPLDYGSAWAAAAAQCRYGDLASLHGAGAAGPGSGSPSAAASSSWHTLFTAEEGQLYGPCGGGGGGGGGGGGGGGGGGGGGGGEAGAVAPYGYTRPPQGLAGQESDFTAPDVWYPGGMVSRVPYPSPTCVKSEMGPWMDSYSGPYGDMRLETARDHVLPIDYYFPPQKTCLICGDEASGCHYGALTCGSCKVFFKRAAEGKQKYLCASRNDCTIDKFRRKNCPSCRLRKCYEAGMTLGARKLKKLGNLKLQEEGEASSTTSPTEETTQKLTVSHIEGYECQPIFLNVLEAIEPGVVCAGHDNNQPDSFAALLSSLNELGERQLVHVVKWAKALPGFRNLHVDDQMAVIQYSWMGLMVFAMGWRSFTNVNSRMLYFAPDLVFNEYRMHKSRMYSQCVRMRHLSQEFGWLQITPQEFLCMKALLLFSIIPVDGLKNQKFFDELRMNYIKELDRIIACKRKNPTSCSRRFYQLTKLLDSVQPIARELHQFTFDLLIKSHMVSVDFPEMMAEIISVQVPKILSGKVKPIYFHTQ
UniProt Q92830: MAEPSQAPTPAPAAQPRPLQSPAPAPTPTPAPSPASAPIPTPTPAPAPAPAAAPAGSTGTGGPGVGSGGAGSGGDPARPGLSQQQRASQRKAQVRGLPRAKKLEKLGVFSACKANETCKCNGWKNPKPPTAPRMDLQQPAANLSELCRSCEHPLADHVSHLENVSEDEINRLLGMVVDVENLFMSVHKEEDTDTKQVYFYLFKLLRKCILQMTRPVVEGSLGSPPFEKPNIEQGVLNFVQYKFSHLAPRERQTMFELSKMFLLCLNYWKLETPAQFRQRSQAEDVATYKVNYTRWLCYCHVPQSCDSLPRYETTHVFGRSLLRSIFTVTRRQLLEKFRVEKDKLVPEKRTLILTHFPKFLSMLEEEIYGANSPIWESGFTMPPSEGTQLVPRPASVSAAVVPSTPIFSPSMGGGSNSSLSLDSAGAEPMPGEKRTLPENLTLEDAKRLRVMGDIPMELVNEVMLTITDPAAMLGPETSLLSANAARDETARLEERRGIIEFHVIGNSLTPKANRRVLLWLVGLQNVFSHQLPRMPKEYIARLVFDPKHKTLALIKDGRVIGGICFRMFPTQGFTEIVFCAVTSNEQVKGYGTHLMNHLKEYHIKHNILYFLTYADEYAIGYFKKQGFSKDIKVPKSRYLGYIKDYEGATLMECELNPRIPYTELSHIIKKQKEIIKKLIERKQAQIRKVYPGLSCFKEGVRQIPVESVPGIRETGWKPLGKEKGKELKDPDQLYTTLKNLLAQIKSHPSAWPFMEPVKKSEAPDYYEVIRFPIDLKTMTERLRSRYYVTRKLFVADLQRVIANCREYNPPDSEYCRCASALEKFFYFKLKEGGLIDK

Experiment [2] concerns the target T1, PTGES3 (human (endogenous in LNCaP)). Put plainly: co-IP; LNCaP cells fractionated to isolate nuclei; IP with IgG or PTGES3 antibodies; western blot for AR.
Experiment [3] has the same target. Put plainly: co-IP; LNCaP cell lysate; IP with IgG or PTGES3 antibody; western blots for KAT2A, P300, FOXA1. Background: Immunoblotting shows a protein as a band on a membrane.
In another experiment the target is HA-tagged full-length AR (UniProt P10275). Description: co-IP; LNCaP cells transfected with HA-tagged AR constructs; IP with HA antibody; western blot for PTGES3.

Results are given in words; binding and its absence hold for the method and conditions named. Binding seen in cells or lysates may run through a third protein. Some binding calls cover weakened binding; strength is not graded here.

In the case of “androgen receptor (from UniProt P10275 1-920)”, the binding entry in experiment [1] and in experiment [2] was “binds” each time.

With “histone acetyltransferase KAT2A (from UniProt Q92830 1-837) (enzyme)”, in experiment [3], the binding result is “binds”.

B1: PTGES3 (protein, UniProt Q15185 1-160)
chain: T1 sequence
B1: the binding entry with HA-tagged full-length AR is reported as “binds”.

Values taken from article PMC12695660, “Genome-scale CRISPR screens identify PTGES3 as a direct modulator of androgen receptor function in advanced prostate cancer”.
